What all share (assay): split reporter; split YFP BiFC in living TG1 ΔtatABCE cells (TatA also in ΔtatAE, TatB/TatC also in ΔtatB and ΔtatC); median fluorescence by flow cytometry against unfused Y1 or Y2 controls, fluorescence microscopy
For orientation: Flow cytometry measures light scatter and fluorescence of single cells or particles in a stream.

Chains of the proteins cited; added tags and fusions are not shown.
UniProt P69853: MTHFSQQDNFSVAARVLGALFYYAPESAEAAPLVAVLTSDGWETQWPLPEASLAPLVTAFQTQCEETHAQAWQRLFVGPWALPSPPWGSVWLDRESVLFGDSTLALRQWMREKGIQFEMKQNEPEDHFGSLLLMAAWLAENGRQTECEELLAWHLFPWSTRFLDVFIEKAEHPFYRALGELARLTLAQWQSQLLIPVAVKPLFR

The target in experiment [1] is DmsD fused to a YFP fragment (DmsD-Y2; DmsD-Y1) (E. coli) (UniProt P69853).
The target of experiment [2] is T1, TatC(P48A) fused to a YFP fragment (P48A-Y1; P48A-Y2) (E. coli) (UniProt P69423).
T1 sequence: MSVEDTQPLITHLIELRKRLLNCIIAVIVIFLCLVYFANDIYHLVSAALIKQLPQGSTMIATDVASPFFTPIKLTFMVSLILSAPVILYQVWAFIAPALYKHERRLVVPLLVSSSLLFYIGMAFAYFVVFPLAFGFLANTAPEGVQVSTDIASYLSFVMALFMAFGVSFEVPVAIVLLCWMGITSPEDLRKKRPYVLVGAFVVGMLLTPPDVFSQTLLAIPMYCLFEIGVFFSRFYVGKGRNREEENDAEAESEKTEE

Experiment [3] has as its target T2, TatB fused to a YFP fragment (TatB-Y1; TatB-Y2) (E. coli) (UniProt P69425).
T2 sequence: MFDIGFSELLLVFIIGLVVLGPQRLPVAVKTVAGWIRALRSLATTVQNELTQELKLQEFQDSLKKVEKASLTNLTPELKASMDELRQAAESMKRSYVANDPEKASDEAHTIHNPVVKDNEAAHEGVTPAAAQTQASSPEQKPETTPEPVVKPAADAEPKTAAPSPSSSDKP

Experiment [4] addresses T3, TatC(E103R) fused to a YFP fragment (E103R-Y1; E103R-Y2) (E. coli) (UniProt P69423).
T3 sequence: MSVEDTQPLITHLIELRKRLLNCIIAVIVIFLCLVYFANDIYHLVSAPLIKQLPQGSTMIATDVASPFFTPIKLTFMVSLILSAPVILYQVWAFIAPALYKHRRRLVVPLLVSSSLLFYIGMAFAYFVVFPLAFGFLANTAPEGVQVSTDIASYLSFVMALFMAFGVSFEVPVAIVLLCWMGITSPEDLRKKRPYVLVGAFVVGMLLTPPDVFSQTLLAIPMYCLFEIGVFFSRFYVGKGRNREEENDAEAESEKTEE

For experiment [5], the target named is T4, TatC fused to a YFP fragment (TatC-Y1; TatC-Y2) (E. coli) (UniProt P69423).
T4 sequence: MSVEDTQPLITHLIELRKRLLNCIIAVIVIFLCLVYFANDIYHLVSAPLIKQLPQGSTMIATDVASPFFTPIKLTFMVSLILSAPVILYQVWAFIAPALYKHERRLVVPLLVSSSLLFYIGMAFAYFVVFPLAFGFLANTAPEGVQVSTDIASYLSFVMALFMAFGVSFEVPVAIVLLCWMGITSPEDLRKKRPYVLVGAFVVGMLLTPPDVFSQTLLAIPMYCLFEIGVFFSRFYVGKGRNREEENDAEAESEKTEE

For experiment [6], the target named is T5, TatA fused to a YFP fragment (TatA-Y1; TatA-Y2) (E. coli) (UniProt P69428).
T5 sequence: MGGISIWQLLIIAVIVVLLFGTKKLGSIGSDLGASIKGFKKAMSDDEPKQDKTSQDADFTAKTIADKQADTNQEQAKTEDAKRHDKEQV

Experiment [7] has as its target T6, TatC fused to a YFP fragment (TatC-Y1; TatC-Y2) (E. coli), P69423.
T6 chain: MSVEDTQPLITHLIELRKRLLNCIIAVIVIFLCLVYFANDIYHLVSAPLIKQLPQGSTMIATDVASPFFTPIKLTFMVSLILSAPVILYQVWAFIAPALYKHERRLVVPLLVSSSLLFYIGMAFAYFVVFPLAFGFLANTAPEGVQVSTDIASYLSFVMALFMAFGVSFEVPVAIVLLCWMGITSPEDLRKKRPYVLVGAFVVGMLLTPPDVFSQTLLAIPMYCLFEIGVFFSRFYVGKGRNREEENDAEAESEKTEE
The following applies: remark: other sources report otherwise.

No constants are given. Whether binding was seen depends on the method and setting. Binding seen in cells or lysates may run through a third protein. Some entries that bind do so weakly or less than the wild type. Where a sequence is shown, tags or fusion partners need not be part of it.

B1: TatB fused to a YFP fragment (TatB-Y1; TatB-Y2) (protein, UniProt P69425 1-171)
chain: MFDIGFSELLLVFIIGLVVLGPQRLPVAVKTVAGWIRALRSLATTVQNELTQELKLQEFQDSLKKVEKASLTNLTPELKASMDELRQAAESMKRSYVANDPEKASDEAHTIHNPVVKDNEAAHEGVTPAAAQTQASSPEQKPETTPEPVVKPAADAEPKTAAPSPSSSDKP
As to B1, the binding entry in experiment [1], in experiment [2], in experiment [3], in experiment [4] and in experiment [5] was “binds” throughout.

B2: TatA(F39A) fused to a YFP fragment (F39A-Y1; F39A-Y2) (protein, UniProt P69428 1-89)
chain: MGGISIWQLLIIAVIVVLLFGTKKLGSIGSDLGASIKGAKKAMSDDEPKQDKTSQDADFTAKTIADKQADTNQEQAKTEDAKRHDKEQV
B2: the binding result in experiment [6] is given as “binds”.

B3: TatA fused to a YFP fragment (TatA-Y1; TatA-Y2) (protein, UniProt P69428 1-89)
chain: MGGISIWQLLIIAVIVVLLFGTKKLGSIGSDLGASIKGFKKAMSDDEPKQDKTSQDADFTAKTIADKQADTNQEQAKTEDAKRHDKEQV
B3: the binding result in experiment [5] was “binds”.

B4: TatC fused to a YFP fragment (TatC-Y1; TatC-Y2) (protein, UniProt P69423 1-258)
chain: MSVEDTQPLITHLIELRKRLLNCIIAVIVIFLCLVYFANDIYHLVSAPLIKQLPQGSTMIATDVASPFFTPIKLTFMVSLILSAPVILYQVWAFIAPALYKHERRLVVPLLVSSSLLFYIGMAFAYFVVFPLAFGFLANTAPEGVQVSTDIASYLSFVMALFMAFGVSFEVPVAIVLLCWMGITSPEDLRKKRPYVLVGAFVVGMLLTPPDVFSQTLLAIPMYCLFEIGVFFSRFYVGKGRNREEENDAEAESEKTEE
For the molecule B4, the binding entry in experiment [1], in experiment [3] and in experiment [6] was “binds” in each case.

B5: TatC fused to a YFP fragment (TatC-Y1; TatC-Y2), P69423 1-258 (protein)
chain: MSVEDTQPLITHLIELRKRLLNCIIAVIVIFLCLVYFANDIYHLVSAPLIKQLPQGSTMIATDVASPFFTPIKLTFMVSLILSAPVILYQVWAFIAPALYKHERRLVVPLLVSSSLLFYIGMAFAYFVVFPLAFGFLANTAPEGVQVSTDIASYLSFVMALFMAFGVSFEVPVAIVLLCWMGITSPEDLRKKRPYVLVGAFVVGMLLTPPDVFSQTLLAIPMYCLFEIGVFFSRFYVGKGRNREEENDAEAESEKTEE
Consider B5, for which the binding result in experiment [7] is “no binding”.
